# In patent US20160266153A1, “I[…] PREGABALIN” (Randox Laboratories Limited, priority 2015, published 2016):
# Test system: antibody RS2845 (raised against Immunogen II)
# Assay: Competitive ELISA: HRP tracer (Tracer 1) versus pregabalin or potential cross-reactants for binding sites of polyclonal antibody RS2845
# Details: 450 nm
# Method: The antibody titre is evaluated by coating a microtitre plate (Thermo Fisher Scientific NUNC, 468667) with antibody (125 μl/well) in coating buffer (10 mM Tris pH 8.5) at 37° C. for 2 hours. The plate is then washed 4 times over 10 minutes with working strength mixture of Tris-Buffered Saline and Tween 20 (TBST). 50 μl of sample/standard (pregabalin) is added to the appropriate wells in triplicate, followed by 75 μl of hapten-HRP conjugate and incubated at 25° C. for 1 hour. The plate is then washed and 125 μl of TMB (Randox Laboratories, 4380-15) added to each well and left at room temperature for 20 mins in the dark. The reaction is stopped using 125 μl of 0.2 M sulphuric acid. The absorbances are read at 450 nm with an ELISA microplate reader (BIO-TEK Instruments, Elx800) and the means calculated. Antibody sensitivity can then be determined.
# IgG was extracted from serum from the immunized animal the using ammonium sulphate/caprylic acid precipitation and the purified antibody was immobilised on a 96 well ELISA plate at 5 μg/ml in 10 mM TRIS buffer, pH 8.5 overnight at 4° C. The assay was based on competition for binding sites of a polyclonal antibody between HRP tracer and pregabalin or potential cross-reactants. The plate was washed (×3) with TBST and the calibrator (pregabalin) or potential cross reactants added (50 μl per well), followed by HRP tracer (75 μl/well) to the appropriate wells. The plates were then incubated for 60 minutes at 25° C. They were then subjected to 2 quick wash cycles using TBST, followed by 4×2 minute wash cycles. 125 μL of signal 25 (TMB) was then added to each well for 20 mins at room temperature in the dark. The reaction was stopped by the addition of 125 μl of 0.2 M Sulphuric Acid per well and the plates read immediately at 450 nm. Calibration curves were generated and these were used to determine the sensitivity and specificity of the immunoassay for pregabalin and potential cross-reactants. The data was inputted to a computer program called ‘KC Junior’ (Biotek). […] This program is used to calculate the IC50 values by dividing the 0 ng/ml optical density (OD) value by 2 and obtaining the concentration value from the curve for this OD.
# wherein % CR is the percentage cross-reactivity, IC50 pregabalin is the concentration of pregabalin which causes 50% displacement of signal and IC50 CR is the concentration of potential cross-reactant that causes 50% displacement of signal.
# The antibody (RS2845) used to generate the data in the tables below was raised from Immunogen II (Example 9) and the HRP tracer was prepared as in Example 10 (Tracer 1).
compound,measurement,setting,value
"CC(C)CC(CN)CC(=O)O (centres unmarked) [Pregabalin, 3-(aminomethyl)-5-methylhexanoic acid]",Average OD,pregabalin 0.02 ng/ml,1.862
same,Average OD,pregabalin 0.08 ng/ml,1.276
same,Average OD,pregabalin 0.31 ng/ml,0.696
same,Average OD,pregabalin 1.25 ng/ml,0.346
same,Average OD,pregabalin 5.00 ng/ml,0.178
